Assay results reported in paper PMC3827329.
Results are given in words; binding and its absence hold for the method and conditions named. In cells and extracts the contact can be indirect. Binding calls can cover weak binding; strength is not graded here.

Protein sequences, listed by entry. Tags and fused reporters are not part of them. Lines headed by an entry give the natural chain unless they say otherwise; changes in a name come on top.
UniProt P67775: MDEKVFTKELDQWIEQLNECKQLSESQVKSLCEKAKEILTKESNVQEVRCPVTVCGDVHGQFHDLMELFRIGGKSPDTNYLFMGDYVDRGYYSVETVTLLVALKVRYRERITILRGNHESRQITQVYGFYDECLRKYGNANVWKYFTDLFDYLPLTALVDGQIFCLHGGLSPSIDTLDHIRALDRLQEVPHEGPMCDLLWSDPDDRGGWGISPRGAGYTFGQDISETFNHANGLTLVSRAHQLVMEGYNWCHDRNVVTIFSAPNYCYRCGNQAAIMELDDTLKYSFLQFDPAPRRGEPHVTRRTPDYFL

Target: GST-tagged catalytic subunit of PP2A (UniProt P67775)
Assay: pull-down; GST-tagged bait and His-Xpress-KCTD20 coexpressed in COS7 cells; lysates (20 mM HEPES pH 7.5, 150 mM NaCl, 1 mM DTT, 1 mM EDTA, 0.5% Triton X-100) precleared with sepharose 4B, pulled down with glutathione beads, washed five times; immunoblot with anti-Xpress and anti-GST

binding: binds
Substance: His-Xpress-KCTD20 (potassium channel tetramerization protein domain containing 20) (from UniProt Q7Z5Y7-1 1-419)
